In patent US7253211B2, “(R)-chiral halogenated substituted fused heterocyclic amino compounds useful for inhibiting cholesterol ester transfer protein activity” (Pfizer Inc., priority 1999, dated 2007):
The structures given here were assigned with low confidence; some may be wrong.

Amino acid sequences for entries named in this document (tags omitted). Residues count along the entry.
UniProt P11597, 18-493 limits assumed: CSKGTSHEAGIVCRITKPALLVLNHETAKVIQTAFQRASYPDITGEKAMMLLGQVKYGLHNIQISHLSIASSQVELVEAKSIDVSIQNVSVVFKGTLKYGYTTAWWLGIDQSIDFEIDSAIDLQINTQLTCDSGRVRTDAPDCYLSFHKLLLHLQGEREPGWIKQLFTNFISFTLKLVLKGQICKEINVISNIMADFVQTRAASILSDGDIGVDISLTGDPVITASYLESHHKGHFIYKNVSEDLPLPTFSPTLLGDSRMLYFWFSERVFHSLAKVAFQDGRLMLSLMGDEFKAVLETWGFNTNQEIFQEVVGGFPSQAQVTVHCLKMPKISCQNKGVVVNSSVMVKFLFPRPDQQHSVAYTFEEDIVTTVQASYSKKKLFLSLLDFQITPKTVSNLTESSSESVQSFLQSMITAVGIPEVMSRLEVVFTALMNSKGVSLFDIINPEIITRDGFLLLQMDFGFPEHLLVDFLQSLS

Molecular target: CETP (Homo sapiens, UniProt P11597)
Test: Assay of CETP Inhibition Using Purified Components (Reconstituted Buffer Assay)
Type: biochemical

IC50: 860 nM
SMILES: O[C@H](CN(Cc1cccc(OC(F)(F)F)c1)c1cccc(OCc2cc(F)cc(F)c2)c1)C(F)(F)F
